Test [1] deals with MCRS1-FLAG (microspherule protein 1, FLAG-tagged) (human) (UniProt Q96EZ8). The test is described as follows: co-IP; HEK293T cells transfected for 16 hr, lysed in Nonidet P-40 lysis buffer; lysates immunoprecipitated with anti-FLAG antibody conjugated with agarose beads (anti-FLAG M2 affinity gel) overnight at 4 °C; immunoblot. In general terms: In western blotting, separated proteins are transferred to a membrane and probed.

The chains behind the UniProt entries cited, without tags or fusion partners.
UniProt Q96EZ8: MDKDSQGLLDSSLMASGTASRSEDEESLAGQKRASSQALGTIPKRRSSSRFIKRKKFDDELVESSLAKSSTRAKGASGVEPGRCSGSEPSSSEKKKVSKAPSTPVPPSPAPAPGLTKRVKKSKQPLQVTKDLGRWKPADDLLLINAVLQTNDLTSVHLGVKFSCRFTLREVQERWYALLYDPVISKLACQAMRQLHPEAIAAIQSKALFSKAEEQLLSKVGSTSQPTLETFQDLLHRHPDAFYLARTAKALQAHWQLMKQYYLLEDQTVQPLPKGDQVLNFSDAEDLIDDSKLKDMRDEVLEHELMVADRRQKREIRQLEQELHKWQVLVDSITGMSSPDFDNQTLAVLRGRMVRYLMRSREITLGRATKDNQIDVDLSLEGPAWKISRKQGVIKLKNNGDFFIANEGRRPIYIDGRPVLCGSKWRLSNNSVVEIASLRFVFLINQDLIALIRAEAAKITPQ
UniProt Q6IQ55: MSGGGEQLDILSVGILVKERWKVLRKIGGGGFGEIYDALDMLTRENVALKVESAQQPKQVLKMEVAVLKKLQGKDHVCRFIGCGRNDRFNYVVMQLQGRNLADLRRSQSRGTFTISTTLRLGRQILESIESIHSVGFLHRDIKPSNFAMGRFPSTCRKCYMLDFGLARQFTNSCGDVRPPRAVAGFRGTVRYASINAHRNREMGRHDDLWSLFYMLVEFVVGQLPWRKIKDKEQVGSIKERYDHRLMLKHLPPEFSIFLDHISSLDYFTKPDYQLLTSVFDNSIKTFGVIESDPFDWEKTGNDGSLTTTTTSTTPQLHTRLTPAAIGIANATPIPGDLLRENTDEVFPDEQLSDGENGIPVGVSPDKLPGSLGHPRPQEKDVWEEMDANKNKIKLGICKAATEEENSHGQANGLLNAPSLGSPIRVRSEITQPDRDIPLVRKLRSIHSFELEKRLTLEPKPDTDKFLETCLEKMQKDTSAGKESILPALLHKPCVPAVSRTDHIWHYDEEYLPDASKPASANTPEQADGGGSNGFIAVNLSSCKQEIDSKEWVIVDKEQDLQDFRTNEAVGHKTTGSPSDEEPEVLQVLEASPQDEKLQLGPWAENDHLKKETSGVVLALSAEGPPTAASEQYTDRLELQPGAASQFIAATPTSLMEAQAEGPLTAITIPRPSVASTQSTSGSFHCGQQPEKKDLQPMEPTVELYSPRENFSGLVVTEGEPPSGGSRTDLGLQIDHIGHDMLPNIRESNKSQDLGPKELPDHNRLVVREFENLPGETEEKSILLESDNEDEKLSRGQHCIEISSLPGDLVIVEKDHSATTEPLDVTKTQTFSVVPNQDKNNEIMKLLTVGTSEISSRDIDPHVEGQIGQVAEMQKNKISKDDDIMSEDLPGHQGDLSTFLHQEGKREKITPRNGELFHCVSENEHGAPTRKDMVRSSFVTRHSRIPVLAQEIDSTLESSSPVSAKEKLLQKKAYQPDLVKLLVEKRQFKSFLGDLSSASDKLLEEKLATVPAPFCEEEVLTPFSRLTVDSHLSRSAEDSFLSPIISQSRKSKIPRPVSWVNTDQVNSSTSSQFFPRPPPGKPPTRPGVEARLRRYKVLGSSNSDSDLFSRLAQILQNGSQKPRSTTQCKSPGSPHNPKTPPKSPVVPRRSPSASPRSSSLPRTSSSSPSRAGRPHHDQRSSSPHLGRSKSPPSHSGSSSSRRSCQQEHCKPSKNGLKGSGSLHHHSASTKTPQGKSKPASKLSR

For test [2] the target is unchanged. The test is described as follows: co-IP; co-immunoprecipitation of MCRS1 and NDE1 with or without overexpressed TTBK2; resin and tags for this experiment not told (Supplementary Fig. S3).

Results are given in words; binding and its absence hold for the method and conditions named. Binding seen in cells or lysates may run through a third protein. Some binding calls cover weakened binding; strength is not graded here. For some assays here: Tags and fused reporters may be left off the sequences shown.

For TTBK2-GFP (from UniProt Q6IQ55 1-1244), the binding entry in test [1] is listed as “binds”.

B1: NDE1-MYC (protein, UniProt Q9NXR1 1-335)
chain: MEDSGKTFSSEEEEANYWKDLAMTYKQRAENTQEELREFQEGSREYEAELETQLQQIETRNRDLLSENNRLRMELETIKEKFEVQHSEGYRQISALEDDLAQTKAIKDQLQKYIRELEQANDDLERAKRATIMSLEDFEQRLNQAIERNAFLESELDEKENLLESVQRLKDEARDLRQELAVQQKQEKPRTPMPSSVEAERTDTAVQATGSVPSTPIAHRGPSSSLNTPGSFRRGLDDSTGGTPLTPAARISALNIVGDLLRKVGALESKLASCRNLVYDQSPNRTGGPASGRSSKNRDGGERRPSSTSVPLGDKGLDTSCRWLSKSTTRSSSSC
With B1, the binding entry in test [2] was “binds”.

For the origin of these results see paper PMC4893664.
